The text below walks through data of PubChem BioAssay AID2685 (National Center for Advancing Translational Sciences (NCATS), 2010).

This test in a line: qHTS Assay for Lipid Storage Modulators in Drosophila S3 Cells.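 On cell number change: cells counted by Cell Tracker Red CMTPX staining in the red channel.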 Particulars: BODIPY lipid droplet fluorescence, 18-24 h; for cell number change: measured here: cell count max response, cells fed with added oleic acid. The method, boiled down: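 Laser-scanning cytometry quantifies lipid droplet accumulation (500–530 nm total intensity; droplet/cell object ratio) in oleic acid-fed (400 uM added) Drosophila S3 cells treated with a concentration series. 20 uM Triacsin C defined 100% inhibition.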
In general terms: qHTS replaces the single test concentration by a dilution series.

[1] abbreviates: measured here: lipid fluorescence (Fed channel) AC50, cells fed with added oleic acid.
Setting [2] is: measured here: cell number channel AC50, cells fed with added oleic acid.

Some of the results follow. Shown are side measurements of this screen, not its main read-out; they come without a call. Most of these compounds were active or inconclusive in the main read-out, so they are no random draw. The note in brackets gives the kind of curve behind each potency; many fits are weak.

As a reminder, the AC50 is the midpoint of the concentration-response curve, whichever way the signal moves. `CSc1ccccc1OCc1cc(C(=O)N2CCN(C3CCCC3)C(=O)C2)no1`: the cell number change is -15.6%. For the same molecule, the half-maximal activity concentration (AC50) under setting [1] is 2.06 µM [rising, partial curve, poor fit].
Take `COc1ccccc1N1CCN(C(=O)c2ccc3[nH]c(C)c(C)c3c2)CC1`: the cell number change was determined as 2.29%. Also, the concentration at half-maximal activity (AC50) under setting [1] is 29.1 µM [falling, single point].
Consider `CC(C)(C)N(Cc1ccccc1)C(=O)c1cccs1`, for which the cell number change was -7.94%. Under setting [1], the AC50 is 0.13 µM [falling, full curve, poor fit].
`Cc1ccc(OC[C@H](O)[C@H](C)NC(C)C)c2c1CCC2`: the cell number change is -35.3%. The AC50 under setting [2] is 16.4 µM [falling, single point].
`CCOc1ccc(CN(C)C(=O)NNC(=O)c2ccc(C)cc2)cc1OC`: the cell number change was found to be 12.7%.
Consider `COC(=O)c1cccc(Cn2c(Cl)c(/C=N/NC(=O)c3ccco3)sc2=O)c1`, for which the cell number change is 3.54%.
As to `COc1ccc2nc(NCCO)[nH]c2c1`, the cell number change was -45%. For the same molecule, under setting [2], the concentration at half-maximal activity (AC50) is 20.6 µM [falling, single point]. For the same molecule, the concentration at half-maximal activity (AC50) under setting [1] is 1.46 µM [falling, full curve].
For the molecule `C(=N\c1nccs1)/c1c[nH]c2ccccc12`, the cell number change was 15.4%. Also, the AC50 under setting [1] was 3.26 µM [falling, single point].
Consider `O=S1(=O)CCC(SCc2nc3sccn3c2Br)C1` (stereo not given), for which the cell number change was found to be 9.3%.
Turning to `CCCc1c(C(=O)N/N=C/c2ccccc2C(F)(F)F)nnn1-c1nonc1N`, the cell number change amounted to 44.7%. Besides, under setting [2], the AC50 was 29.1 µM [rising, single point]. For the same molecule, the half-maximal activity concentration (AC50) under setting [1] is 20.6 µM [falling, partial curve].
As for `CC1Cc2ccccc2N1C(=O)COc1cccc(-n2cnnn2)c1` (stereo not given), the cell number change is 2.17%. Besides, the half-maximal activity concentration (AC50) under setting [2] was 0.326 µM [rising, full curve]. Further, the half-maximal activity concentration (AC50) under setting [1] was 0.92 µM [rising, partial curve].
For `CC1Cc2ccccc2N1C(=O)COC(=O)Cc1ccc(F)cc1` (stereo not given), the AC50 under setting [2] was 0.731 µM [falling, full curve].
`O=C(Nc1ccccc1C(=O)Nc1ccccn1)c1ccccc1F`: the cell number change is -3.86%. Also, the AC50 under setting [1] was 29.1 µM [falling, single point].
In the case of `CC1CCCN(CCOCCOc2ccc(Br)cc2Cl)C1` (stereo not given), the cell number change is -2.2%. For the same molecule, under setting [1], the AC50 was 0.092 µM [rising, full curve, poor fit].
For `CCCN1CCN(C(=O)C2CCN(c3nnc(C)c4c(C)n(-c5ccc(C)cc5)nc34)CC2)CC1`, the cell number change turned out to be 50%. In addition, the concentration at half-maximal activity (AC50) under setting [1] was 29.1 µM [falling, single point].
Regarding `CCOC(=O)c1ccc([N+](=O)[O-])cc1NC(C)=O`, the cell number change stood at 15.1%. Further, under setting [1], the AC50 is 32.6 µM [rising, single point].
As to `Cc1cc(Br)c2c(c1)C(O)(N1CCCCC1C)C(=O)N2` (stereo not given), the cell number change was -58%. Besides, the AC50 under setting [2] is 16.4 µM [falling, single point]. The AC50 under setting [1] was 29.1 µM [falling, single point].
For `CC1CC(C)CN(CCC(=O)Nc2cccc(Cl)c2)C1` (stereo not given), the cell number change amounted to 3.38%.
Take `Cc1ccc2nc(-c3ccccc3)cc(C(=O)Nc3cccnc3)c2c1`: the cell number change is -5.78%. In addition, the AC50 under setting [1] was 25.9 µM [falling, single point].
On to `Cc1ccc(S(=O)(=O)NCCC(=O)Nc2cccc(S(N)(=O)=O)c2)cc1C`, for which the cell number change stood at 25.6%. For the same molecule, the AC50 under setting [1] was 0.206 µM [falling, single point].
On to `Cc1ccc(NC(=O)C2CCCN2C(=O)NC2CCCCC2)cc1F` (stereo not given), for which the cell number change came out at 33.8%. In addition, under setting [2], the concentration at half-maximal activity (AC50) is 23.1 µM [rising, partial curve, poor fit]. Besides, the half-maximal activity concentration (AC50) under setting [1] was 0.13 µM [rising, full curve, poor fit].
For the molecule `Nc1cc(C(=O)OCC(=O)c2ccc(CC(=O)N3CCOCC3)s2)ccc1Cl`, the cell number change was determined as 3.41%.
Turning to `O=C(OCCOc1cccc(Cl)c1)c1cc(S(=O)(=O)N2CCCCC2)ccc1N1CCOCC1`, the cell number change is 25.4%. Moreover, the half-maximal activity concentration (AC50) under setting [2] was 4.61 µM [rising, single point].
In the case of `O=C(Cc1cc(=O)[nH][nH]1)N/N=C/c1cccc(Cl)c1Cl`, the cell number change is -28.5%. The half-maximal activity concentration (AC50) under setting [1] is 1.16 µM [falling, full curve].
As to `COc1ccccc1-c1cc(C(=O)Nc2ccc(F)cc2F)no1`, the cell number change is -13.5%. In addition, under setting [1], the half-maximal activity concentration (AC50) is 1.84 µM [falling, partial curve].
Consider `C=CC[n+]1c(-c2ccccc2)csc1NC(C)(C)C`, for which the cell number change worked out at 45.8%. The AC50 under setting [2] was 16.4 µM [rising, single point]. The concentration at half-maximal activity (AC50) under setting [1] is 23.1 µM [rising, single point].
As for `Cc1cc(C)cc(NCc2ccncc2)c1`, the cell number change is -10.1%.
For the molecule `O=C(NCc1ccccc1Cl)C1CCN(c2cnccn2)CC1`, the cell number change is -9.13%. Under setting [1], the AC50 is 4.61 µM [falling, single point].
For `COc1ccc(/C(N)=N/OC(=O)CCc2ccccc2)cc1`, the cell number change turned out to be 23.5%. Besides, under setting [1], the half-maximal activity concentration (AC50) is 0.82 µM [rising, single point].
Take `CCn1c2ccccc2c2cc(/C=N/n3cnnc3)ccc21`: the cell number change is -23%. For the same molecule, under setting [2], the concentration at half-maximal activity (AC50) is 7.31 µM [falling, partial curve, poor fit].
`CCOc1ccccc1NC(=O)Cn1c(=O)n(-c2ccccc2)c(=O)c2oc3ccccc3c21`: the cell number change is -3.85%. Under setting [2], the AC50 is 6.51 µM [rising, single point]. The AC50 under setting [1] is 6.51 µM [rising, single point].
As for `C/C(=C\C(=O)C(F)(F)F)Nc1ccc(C)cc1`, the cell number change is -3.47%.
Consider `CC(OC(=O)c1cccc(NS(C)(=O)=O)c1)C(=O)Nc1ccc(N2CCOCC2)cc1` (stereo not given), for which the concentration at half-maximal activity (AC50) under setting [1] is 0.731 µM [falling, full curve].
Consider `CCN(CC)c1ccc([C@H]2[C@@H]3CCCC[C@]3(O)CCN2CC(=O)NCc2ccco2)cc1`, for which the cell number change turned out to be 14.6%. The half-maximal activity concentration (AC50) under setting [1] is 13 µM [rising, partial curve].
Turning to `Fc1cccc(C2NN=C(c3ccccc3)S2)c1` (stereo not given), the cell number change is -16.7%. Moreover, under setting [1], the AC50 was 0.259 µM [rising, full curve, poor fit].
Consider `Cc1cc(C)nc(NC(=O)c2c(-c3c(Cl)cccc3Cl)noc2C)n1`, for which the cell number change turned out to be 86.7%. Besides, the half-maximal activity concentration (AC50) under setting [2] is 11.6 µM [rising, partial curve]. Also, the AC50 under setting [1] was 1.84 µM [rising, partial curve].
Turning to `CCOc1ccccc1N1CCN(C(=O)c2cccc(-c3ccc(O)cc3)c2)CC1`, the cell number change was -6.57%. In addition, the half-maximal activity concentration (AC50) under setting [1] was 0.731 µM [falling, single point].
With `COCCNC(=S)NCc1ccc2[nH]c3c(c2c1)CCCC3`, the cell number change was -26.9%. Moreover, the AC50 under setting [1] was 23.1 µM [falling, partial curve, poor fit].
Regarding `Cc1ccc(SCCN2CCN(CCc3ccccc3)CCC2=O)cc1`, the cell number change stood at 20%. For the same molecule, the AC50 under setting [1] was 7.31 µM [rising, partial curve].
Turning to `O=C(O)CCCCCn1c(SCc2cc(=O)n3cc(Cl)ccc3n2)nc2ccsc2c1=O`, the cell number change was 33.7%. Moreover, the concentration at half-maximal activity (AC50) under setting [2] was 11.6 µM [rising, partial curve]. The AC50 under setting [1] was 10.3 µM [rising, partial curve].
Turning to `COc1cccc(NC(=O)C(c2ccccc2)N2CCCC2)c1` (stereo not given), the half-maximal activity concentration (AC50) under setting [1] is 2.06 µM [falling, partial curve].
On to `CN(C)C(=O)CNC(=O)C1CCCCC1`, for which the cell number change is -17.1%. Also, the AC50 under setting [1] was 0.517 µM [falling, full curve, poor fit].
Take `O=C1/C(=C/c2cccnc2)N=C2CCCCCN12`: the AC50 was 5.17 µM [rising, single point] under setting [2] and 6.51 µM [rising, single point] under setting [1].
Turning to `CCc1cc(C(=O)Nc2cc(Cl)ccc2N2CCN(C)CC2)sc1C`, the cell number change came to 50.5%. Further, the AC50 under setting [2] was 4.61 µM [rising, full curve].
`CC[C@@H](C)[C@H](NC(=O)OC(C)(C)C)c1nnc(S(=O)(=O)Cc2cc(C)ccc2C)o1`: the cell number change is -82.2%. The concentration at half-maximal activity (AC50) under setting [2] was 29.1 µM [falling, single point]. Also, under setting [1], the AC50 is 25.9 µM [falling, partial curve].
For the molecule `CCC(=O)NCCc1nc2ccccc2n1Cc1ccc(C)cc1`, the cell number change was found to be 16.3%. Besides, the AC50 under setting [1] was 6.51 µM [rising, single point].
Consider `Nc1c(-c2cccc(Cl)c2)cnn1-c1ccccc1`, for which the cell number change came to 2.01%. Also, the concentration at half-maximal activity (AC50) under setting [1] was 0.0058 µM [falling, full curve, poor fit].
For the molecule `COC(=O)CSc1nnc(C)n1-c1cccc(OC)c1`, the cell number change was -25.4%. Also, the AC50 under setting [1] is 0.103 µM [falling, full curve, poor fit].
Take `CC(C)N(Cc1nc(-c2ccc3c(c2)OCO3)no1)Cc1nccn1C`: the cell number change worked out at 11.4%. Also, under setting [1], the AC50 is 0.0259 µM [rising, full curve, poor fit].
Take `O=C(NCCOC(=O)c1ccccc1C(=O)OCCNC(=O)c1cccnc1)c1cccnc1`: the cell number change stood at 37.1%. The AC50 under setting [2] was 7.31 µM [rising, partial curve, poor fit].
Take `CCC(=O)N1CCc2cc(S(=O)(=O)CCC(=O)NCc3ccc(C)cc3)ccc21`: the cell number change was found to be 22.7%.
Turning to `Cc1ccc(NC(=O)CN2C(=O)COc3ccc(S(=O)(=O)N4CCCC4)cc32)cc1C`, the cell number change turned out to be 0.943%. The AC50 under setting [1] is 6.51 µM [rising, single point].
On to `NC(=O)c1cccc(CC(=O)c2ccccc2)c1`, for which the cell number change is -35.1%. Moreover, under setting [2], the AC50 was 1.16 µM [falling, full curve, poor fit]. In addition, under setting [1], the concentration at half-maximal activity (AC50) was 9.2 µM [falling, partial curve].
In the case of `CCc1nc2oc3ccccc3c(=O)c2c(=O)n1-c1ccccc1`, the cell number change is 5.83%. Besides, the concentration at half-maximal activity (AC50) under setting [1] was 0.731 µM [rising, single point].
For `COc1cc(C2C=C(c3cccs3)Nc3ncnn32)cc(OC)c1OC` (stereo not given), the cell number change was -65%. The AC50 under setting [2] was 29.1 µM [falling, single point].
On to `CC(C)=C(NC(=O)c1ccccc1Br)C(=O)NCCc1nc2ccccc2[nH]1`, for which the cell number change was determined as 33.2%. Also, the AC50 under setting [2] is 18.4 µM [rising, single point].
On to `COC(=O)[C@@]1(Cc2ccc(F)cc2)[C@H]2c3cc(C(=O)N(C)C)n(Cc4ccccc4)c3C[C@H]2CN1C(=O)c1ccccc1`, for which the cell number change was -47.9%. In addition, under setting [2], the concentration at half-maximal activity (AC50) is 2.59 µM [falling, full curve]. In addition, the AC50 under setting [1] is 8.2 µM [falling, partial curve].
For `COc1ccc(C(=O)OC(C)C(=O)NC(C)CCc2ccccc2)cc1OC` (stereo not given), the cell number change was -8.03%.
As for `CCN(CC(=O)NCc1cccs1)C(=O)c1ccc(S(=O)(=O)Nc2ccccc2Cl)cc1`, the cell number change turned out to be 1.5%. Moreover, under setting [2], the AC50 is 0.651 µM [falling, single point]. Moreover, the AC50 under setting [1] is 0.461 µM [falling, single point].
For the molecule `COc1ccc(S(=O)(=O)N(C)CC(=O)N2CCCC2)cc1OC`, the cell number change was -13.5%.
